# Measured values: the supplement of paper PMC8728848
# The list shows a part of the results.
# B1: OS9 (Arabidopsis thaliana) (protein)
# chain: MRGSHHHHHHGMASMTGGQQMGRDLYDDDDKSRLQIFPAHLVGTFSRNNREPKYKIEFLPEDSPFHPGDNLESMVMLDKHGNRFLCYLPKEEKATSGWTSSQQNISTVMMETQQLVKLKTPDELLQPLSEKCLFRQEGWWSYEFCHQKYVRQLHVEDENKIVQEFFLGTFDPEATAAFNQTVSDASTDASQRYHSHVYTNGTTCDLTGSPAEVEVRFVCAETRAMVTSITELSTCKYALTVQCPTLCKHPLFQLEKPVSHTIHCNAIPVEEDATRNKEEQAVDESPKMIADS
# What was measured:
# Test in all cases: glycan array binding signal (z-score within array); higher = stronger binding
# Conditions in all cases: glycan notation: IUPAC condensed, linker removed; mutation: R201A
# [1] = molecular target: Fuc(a1-2)Gal(b1-4)[Fuc(a1-3)]GlcNAc
# In short: (§1)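 Columns mapping to the same glycan were averaged after glycan names were converted to IUPAC-condensed notation. The data come from 3228 arrays in the Consortium for Functional Glycomics database, limited to those with an available protein sequence. Binding is reported as a within-array Z-score averaged across arrays of one protein sequence and across linkers.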
# [2] = molecular target: Fuc(a1-2)Gal(b1-4)[Fuc(a1-3)]GlcNAc(b1-2)Man(a1-3)[Fuc(a1-2)Gal(b1-4)[Fuc(a1-3)]GlcNAc(b1-2)Man(a1-6)]Man(b1-4)GlcNAc(b1-4)[Fuc(a1-6)]GlcNAc
# In short: as §1
# [3] = molecular target: Fuc(a1-2)Gal(b1-4)[Fuc(a1-3)]GlcNAc(b1-2)[Fuc(a1-2)Gal(b1-4)[Fuc(a1-3)]GlcNAc(b1-4)]Man(a1-3)[Fuc(a1-2)Gal(b1-4)[Fuc(a1-3)]GlcNAc(b1-2)Man(a1-6)]Man(b1-4)GlcNAc(b1-4)GlcNAc
# In short: as §1
# [4] = molecular target: Fuc(a1-2)Gal(b1-4)[Fuc(a1-3)]GlcNAc(b1-3)Gal(b1-4)[Fuc(a1-3)]GlcNAc
# In short: as §1
# [5] = molecular target: Fuc(a1-2)Gal(b1-4)[Fuc(a1-3)]GlcNAc(b1-3)Gal(b1-4)[Fuc(a1-3)]GlcNAc(b1-3)Gal(b1-4)[Fuc(a1-3)]GlcNAc
# In short: as §1
# [6] = molecular target: Fuc(a1-2)Gal(b1-4)[Fuc(a1-3)]GlcNAc(b1-3)GalNAc
# In short: as §1
# [7] = molecular target: Fuc(a1-2)Gal(b1-4)[Fuc(a1-3)]GlcNAc(b1-3)[Neu5Ac(a2-6)Gal(b1-4)GlcNAc(b1-6)]Gal(b1-4)Glc
# In short: as §1
# [8] = molecular target: Fuc(a1-2)Gal3S(b1-4)GlcNAc
# In short: as §1
# [9] = molecular target: Fuc(a1-2)Gal6S(b1-3)GlcNAc
# In short: as §1
# [10] = molecular target: Fuc(a1-2)Gal6S(b1-3)GlcNAc6S
# In short: as §1
# [11] = molecular target: Fuc(a1-2)Gal6S(b1-4)Glc
# In short: as §1
# [12] = molecular target: Fuc(a1-2)Gal6S(b1-4)Glc6S
# In short: as §1
# [13] = molecular target: Fuc(a1-2)[Gal(a1-3)]Gal
# In short: as §1
# [14] = molecular target: Fuc(a1-2)[Gal(a1-3)]Gal(b1-3)GalNAc
# In short: as §1
# [15] = molecular target: Fuc(a1-2)[Gal(a1-3)]Gal(b1-3)GalNAc(b1-3)Gal(a1-4)Gal(b1-4)Glc
# In short: as §1
# [16] = molecular target: Fuc(a1-2)[Gal(a1-3)]Gal(b1-3)GlcNAc
# In short: as §1
# [17] = molecular target: Fuc(a1-2)[Gal(a1-3)]Gal(b1-3)GlcNAc(b1-2)Man(a1-3)[Fuc(a1-2)[Gal(a1-3)]Gal(b1-3)GlcNAc(b1-2)Man(a1-6)]Man(b1-4)GlcNAc(b1-4)GlcNAc
# In short: as §1
# [18] = molecular target: Fuc(a1-2)[Gal(a1-3)]Gal(b1-3)GlcNAc(b1-2)Man(a1-3)[Fuc(a1-2)[Gal(a1-3)]Gal(b1-3)GlcNAc(b1-2)Man(a1-6)]Man(b1-4)GlcNAc(b1-4)[Fuc(a1-6)]GlcNAc
# In short: as §1
# [19] = molecular target: Fuc(a1-2)[Gal(a1-3)]Gal(b1-3)GlcNAc(b1-3)GalNAc
# In short: as §1
# [20] = molecular target: Fuc(a1-2)[Gal(a1-3)]Gal(b1-3)GlcNAc(b1-6)GalNAc
# In short: as §1
# [21] = molecular target: Fuc(a1-2)[Gal(a1-3)]Gal(b1-4)Glc
# In short: as §1
# [22] = molecular target: Fuc(a1-2)[Gal(a1-3)]Gal(b1-4)GlcNAc
# In short: as §1
# [23] = molecular target: Fuc(a1-2)[Gal(a1-3)]Gal(b1-4)GlcNAc(b1-2)Man
# In short: as §1
# [24] = molecular target: Fuc(a1-2)[Gal(a1-3)]Gal(b1-4)GlcNAc(b1-2)Man(a1-3)[Fuc(a1-2)[Gal(a1-3)]Gal(b1-4)GlcNAc(b1-2)Man(a1-6)]Man(b1-4)GlcNAc(b1-4)GlcNAc
# In short: as §1
# [25] = molecular target: Fuc(a1-2)[Gal(a1-3)]Gal(b1-4)GlcNAc(b1-2)Man(a1-3)[Fuc(a1-2)[Gal(a1-3)]Gal(b1-4)GlcNAc(b1-2)Man(a1-6)]Man(b1-4)GlcNAc(b1-4)[Fuc(a1-6)]GlcNAc
# In short: as §1
# [26] = molecular target: Fuc(a1-2)[Gal(a1-3)]Gal(b1-4)GlcNAc(b1-3)GalNAc
# In short: as §1
# [27] = molecular target: Fuc(a1-2)[Gal(a1-3)]Gal(b1-4)GlcNAc(b1-3)[Fuc(a1-2)[Gal(a1-3)]Gal(b1-4)GlcNAc(b1-6)]GalNAc
# In short: as §1
# [28] = molecular target: Fuc(a1-2)[Gal(a1-3)]Gal(b1-4)GlcNAc(b1-6)GalNAc
# In short: as §1
# [29] = molecular target: Fuc(a1-2)[Gal(a1-3)]Gal(b1-4)[Fuc(a1-3)]Glc
# In short: as §1
# [30] = molecular target: Fuc(a1-2)[Gal(a1-3)]Gal(b1-4)[Fuc(a1-3)]GlcNAc
# In short: as §1
# [31] = molecular target: Fuc(a1-2)[Gal(a1-3)]Gal(b1-4)[Fuc(a1-3)]GlcNAc(b1-3)GalNAc
# In short: as §1
# [32] = molecular target: Fuc(a1-2)[Gal(a1-4)]Gal(b1-4)GlcNAc
# In short: as §1
# [33] = molecular target: Fuc(a1-2)[GalNAc(a1-3)]Gal
# In short: as §1
# [34] = molecular target: Fuc(a1-2)[GalNAc(a1-3)]Gal(b1-3)GalNAc(a1-3)[Fuc(a1-2)]Gal(b1-4)GlcNAc
# In short: as §1
# [35] = molecular target: Fuc(a1-2)[GalNAc(a1-3)]Gal(b1-3)GalNAc(b1-3)Gal(a1-4)Gal(b1-4)Glc
# In short: as §1
# [36] = molecular target: Fuc(a1-2)[GalNAc(a1-3)]Gal(b1-3)GlcNAc
# In short: as §1
# [37] = molecular target: Fuc(a1-2)[GalNAc(a1-3)]Gal(b1-3)GlcNAc(b1-2)Man(a1-3)[Fuc(a1-2)[GalNAc(a1-3)]Gal(b1-3)GlcNAc(b1-2)Man(a1-6)]Man(b1-4)GlcNAc(b1-4)GlcNAc
# In short: as §1
# [38] = molecular target: Fuc(a1-2)[GalNAc(a1-3)]Gal(b1-3)GlcNAc(b1-2)Man(a1-3)[Fuc(a1-2)[GalNAc(a1-3)]Gal(b1-3)GlcNAc(b1-2)Man(a1-6)]Man(b1-4)GlcNAc(b1-4)[Fuc(a1-6)]GlcNAc
# In short: as §1
binder,measurement,setting,value
B1,glycan array binding signal (z-score),[1],-0.195
same,glycan array binding signal (z-score),[2],0.249
same,glycan array binding signal (z-score),[3],0.609
same,glycan array binding signal (z-score),[4],0.038
same,glycan array binding signal (z-score),[5],0.684
same,glycan array binding signal (z-score),[6],0.155
same,glycan array binding signal (z-score),[7],-0.261
same,glycan array binding signal (z-score),[8],-1.05
same,glycan array binding signal (z-score),[9],0.666
same,glycan array binding signal (z-score),[10],0.575
same,glycan array binding signal (z-score),[11],0.363
same,glycan array binding signal (z-score),[12],0.982
same,glycan array binding signal (z-score),[13],-0.727
same,glycan array binding signal (z-score),[14],0.19
same,glycan array binding signal (z-score),[15],-1.04
same,glycan array binding signal (z-score),[16],-0.124
same,glycan array binding signal (z-score),[17],-0.718
same,glycan array binding signal (z-score),[18],0.163
same,glycan array binding signal (z-score),[19],-0.217
same,glycan array binding signal (z-score),[20],-0.469
same,glycan array binding signal (z-score),[21],-1.11
same,glycan array binding signal (z-score),[22],-0.917
same,glycan array binding signal (z-score),[23],-0.752
same,glycan array binding signal (z-score),[24],-0.237
same,glycan array binding signal (z-score),[25],-0.309
same,glycan array binding signal (z-score),[26],-0.385
same,glycan array binding signal (z-score),[27],1.25
same,glycan array binding signal (z-score),[28],-0.223
same,glycan array binding signal (z-score),[29],-0.035
same,glycan array binding signal (z-score),[30],0.17
same,glycan array binding signal (z-score),[31],-0.809
same,glycan array binding signal (z-score),[32],-0.617
same,glycan array binding signal (z-score),[33],-0.65
same,glycan array binding signal (z-score),[34],-0.723
same,glycan array binding signal (z-score),[35],0.593
same,glycan array binding signal (z-score),[36],-1.09
same,glycan array binding signal (z-score),[37],-0.508
same,glycan array binding signal (z-score),[38],-1.14

# An excerpt of these results, with bars between the fields:
binder | measurement | setting | value
B1 | glycan array binding signal (z-score) | [23] | -0.752
same | glycan array binding signal (z-score) | [24] | -0.237
